Counter-ions that a name gives are not always drawn. The list shows a part of the results. Hit calls seldom repeat between salt and free forms of one compound.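 Kinases, fused to nanoluciferase, were expressed in K562 cells; luminescence was measured every 4 h from 2 to 18 h as percent of control (DMSO = 100%, positive control = 0%). A time point is decreased if signal falls significantly (2 sigma). Hits were called by the authors by a rule that is not shown; the count of time points alone does not decide it.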
Key:
Test in all cases: number of time points (of 5) at which kinase-Nluc abundance scored as decreased, DMSO-normalised (count); higher = more persistent destabilization
Settings in all cases: K562; 2-18 h
EGFR_L861Q = EGFR_L861Q (UniProt P00533)
EGFR_T790M = EGFR_T790M (UniProt P00533)
EPHA2 = EPHA2 (UniProt P29317)
ERBB3 = ERBB3 (UniProt P21860)
[1] = target: ERBB4_R711C (clone: ERBB4_mut) (UniProt Q15303)
ERN1 = ERN1 (UniProt O75460)
FGFR1 = FGFR1 (UniProt P11362)
FGFR2 = FGFR2 (UniProt P21802)
FGFR3 = FGFR3 (UniProt P22607)
FGR = FGR (UniProt P09769)
FLT3 = FLT3 (UniProt P36888)
FYN = FYN (UniProt P06241)
GSK3A = GSK3A (UniProt P49840)
HER2 = HER2 (UniProt P04626)
INSRR = INSRR (UniProt P14616)
IRAK3 = IRAK3 (UniProt Q9Y616)
JAK1 = JAK1 (UniProt P23458)
LCK = LCK (UniProt P06239)
LIMK1 = LIMK1 (UniProt P53667)
LIMK2 = LIMK2 (UniProt P53671)

Amino acid sequences for entries named in this document (tags omitted). A change or cut given only in a name is not applied to a line headed by its entry.
UniProt P21860, whole entry: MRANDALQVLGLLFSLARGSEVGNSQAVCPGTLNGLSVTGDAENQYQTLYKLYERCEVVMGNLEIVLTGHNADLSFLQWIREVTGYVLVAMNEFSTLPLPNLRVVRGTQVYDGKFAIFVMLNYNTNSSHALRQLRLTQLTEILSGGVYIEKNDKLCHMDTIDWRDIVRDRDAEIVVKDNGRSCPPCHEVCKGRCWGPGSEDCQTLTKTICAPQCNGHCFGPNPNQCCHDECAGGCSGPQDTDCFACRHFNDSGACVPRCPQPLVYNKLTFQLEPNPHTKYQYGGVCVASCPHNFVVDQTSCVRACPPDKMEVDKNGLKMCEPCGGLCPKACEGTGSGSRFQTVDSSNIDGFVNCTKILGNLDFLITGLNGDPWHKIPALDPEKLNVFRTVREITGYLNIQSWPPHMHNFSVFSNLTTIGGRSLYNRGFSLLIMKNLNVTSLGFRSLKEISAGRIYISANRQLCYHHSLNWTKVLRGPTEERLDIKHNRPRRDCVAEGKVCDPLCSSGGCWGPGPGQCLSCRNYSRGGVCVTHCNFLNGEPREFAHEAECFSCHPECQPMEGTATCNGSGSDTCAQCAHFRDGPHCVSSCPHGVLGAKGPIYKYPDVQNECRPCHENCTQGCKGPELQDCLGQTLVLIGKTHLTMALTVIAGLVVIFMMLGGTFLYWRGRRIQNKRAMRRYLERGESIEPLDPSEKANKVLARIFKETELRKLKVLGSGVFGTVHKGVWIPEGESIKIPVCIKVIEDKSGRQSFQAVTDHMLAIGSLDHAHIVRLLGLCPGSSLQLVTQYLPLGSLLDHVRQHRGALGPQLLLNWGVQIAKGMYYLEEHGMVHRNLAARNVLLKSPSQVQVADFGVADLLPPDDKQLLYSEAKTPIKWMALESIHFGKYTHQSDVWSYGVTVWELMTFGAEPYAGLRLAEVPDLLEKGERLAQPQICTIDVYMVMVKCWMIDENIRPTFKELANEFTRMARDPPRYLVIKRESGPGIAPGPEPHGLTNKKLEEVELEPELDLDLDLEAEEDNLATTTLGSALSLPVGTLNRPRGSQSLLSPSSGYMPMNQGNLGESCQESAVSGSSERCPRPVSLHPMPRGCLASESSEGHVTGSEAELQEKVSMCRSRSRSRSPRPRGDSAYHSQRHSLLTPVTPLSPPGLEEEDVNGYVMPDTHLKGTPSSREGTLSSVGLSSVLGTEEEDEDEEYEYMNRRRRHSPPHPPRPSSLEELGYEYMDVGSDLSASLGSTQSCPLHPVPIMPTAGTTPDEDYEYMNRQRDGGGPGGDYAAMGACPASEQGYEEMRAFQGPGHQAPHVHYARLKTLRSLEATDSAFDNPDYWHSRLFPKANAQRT
UniProt P22607, whole entry, looked up: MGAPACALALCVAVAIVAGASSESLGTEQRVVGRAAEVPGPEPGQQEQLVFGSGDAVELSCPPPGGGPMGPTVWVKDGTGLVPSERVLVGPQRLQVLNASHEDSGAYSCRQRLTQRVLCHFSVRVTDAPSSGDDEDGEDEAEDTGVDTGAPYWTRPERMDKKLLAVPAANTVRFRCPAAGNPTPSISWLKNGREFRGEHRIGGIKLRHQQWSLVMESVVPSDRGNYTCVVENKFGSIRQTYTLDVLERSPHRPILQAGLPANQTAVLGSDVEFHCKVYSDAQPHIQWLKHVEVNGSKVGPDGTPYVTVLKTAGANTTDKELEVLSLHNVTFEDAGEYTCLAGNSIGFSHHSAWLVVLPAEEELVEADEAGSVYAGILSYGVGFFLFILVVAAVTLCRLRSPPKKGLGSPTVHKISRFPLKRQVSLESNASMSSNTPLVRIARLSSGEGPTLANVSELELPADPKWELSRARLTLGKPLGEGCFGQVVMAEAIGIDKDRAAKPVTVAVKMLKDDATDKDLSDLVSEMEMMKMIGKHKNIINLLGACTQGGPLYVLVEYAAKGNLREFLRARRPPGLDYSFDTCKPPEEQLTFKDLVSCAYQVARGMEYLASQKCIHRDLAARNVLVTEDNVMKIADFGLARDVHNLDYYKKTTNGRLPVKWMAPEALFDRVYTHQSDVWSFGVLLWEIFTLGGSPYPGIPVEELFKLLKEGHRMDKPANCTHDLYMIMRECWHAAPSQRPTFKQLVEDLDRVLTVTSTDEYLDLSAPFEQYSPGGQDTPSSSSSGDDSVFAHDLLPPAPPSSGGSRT
UniProt P06241, whole entry, looked up: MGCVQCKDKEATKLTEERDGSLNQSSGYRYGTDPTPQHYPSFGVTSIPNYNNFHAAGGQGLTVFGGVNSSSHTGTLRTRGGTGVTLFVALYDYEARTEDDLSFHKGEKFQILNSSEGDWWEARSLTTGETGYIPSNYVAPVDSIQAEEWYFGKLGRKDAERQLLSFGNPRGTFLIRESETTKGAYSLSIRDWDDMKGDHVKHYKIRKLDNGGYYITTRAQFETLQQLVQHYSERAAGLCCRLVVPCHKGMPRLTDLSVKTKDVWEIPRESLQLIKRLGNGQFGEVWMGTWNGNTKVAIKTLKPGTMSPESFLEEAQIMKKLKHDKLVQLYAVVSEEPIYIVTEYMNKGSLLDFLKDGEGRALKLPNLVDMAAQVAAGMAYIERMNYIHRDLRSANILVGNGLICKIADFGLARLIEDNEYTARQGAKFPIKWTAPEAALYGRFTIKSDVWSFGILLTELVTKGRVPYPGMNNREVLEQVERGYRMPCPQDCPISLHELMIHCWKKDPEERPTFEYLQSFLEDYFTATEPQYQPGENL
UniProt P49840: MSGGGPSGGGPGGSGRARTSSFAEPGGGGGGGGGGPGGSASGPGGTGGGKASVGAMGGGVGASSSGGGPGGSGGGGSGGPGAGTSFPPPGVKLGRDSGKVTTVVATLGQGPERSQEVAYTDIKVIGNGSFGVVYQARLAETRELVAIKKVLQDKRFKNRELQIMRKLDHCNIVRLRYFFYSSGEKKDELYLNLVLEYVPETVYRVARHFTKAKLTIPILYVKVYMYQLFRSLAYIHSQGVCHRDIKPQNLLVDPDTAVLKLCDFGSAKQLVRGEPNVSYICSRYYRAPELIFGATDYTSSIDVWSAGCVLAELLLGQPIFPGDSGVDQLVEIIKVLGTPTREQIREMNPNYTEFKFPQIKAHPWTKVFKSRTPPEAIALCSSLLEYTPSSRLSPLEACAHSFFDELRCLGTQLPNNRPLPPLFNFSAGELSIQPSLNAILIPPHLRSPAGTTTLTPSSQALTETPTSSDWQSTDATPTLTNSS
UniProt P14616: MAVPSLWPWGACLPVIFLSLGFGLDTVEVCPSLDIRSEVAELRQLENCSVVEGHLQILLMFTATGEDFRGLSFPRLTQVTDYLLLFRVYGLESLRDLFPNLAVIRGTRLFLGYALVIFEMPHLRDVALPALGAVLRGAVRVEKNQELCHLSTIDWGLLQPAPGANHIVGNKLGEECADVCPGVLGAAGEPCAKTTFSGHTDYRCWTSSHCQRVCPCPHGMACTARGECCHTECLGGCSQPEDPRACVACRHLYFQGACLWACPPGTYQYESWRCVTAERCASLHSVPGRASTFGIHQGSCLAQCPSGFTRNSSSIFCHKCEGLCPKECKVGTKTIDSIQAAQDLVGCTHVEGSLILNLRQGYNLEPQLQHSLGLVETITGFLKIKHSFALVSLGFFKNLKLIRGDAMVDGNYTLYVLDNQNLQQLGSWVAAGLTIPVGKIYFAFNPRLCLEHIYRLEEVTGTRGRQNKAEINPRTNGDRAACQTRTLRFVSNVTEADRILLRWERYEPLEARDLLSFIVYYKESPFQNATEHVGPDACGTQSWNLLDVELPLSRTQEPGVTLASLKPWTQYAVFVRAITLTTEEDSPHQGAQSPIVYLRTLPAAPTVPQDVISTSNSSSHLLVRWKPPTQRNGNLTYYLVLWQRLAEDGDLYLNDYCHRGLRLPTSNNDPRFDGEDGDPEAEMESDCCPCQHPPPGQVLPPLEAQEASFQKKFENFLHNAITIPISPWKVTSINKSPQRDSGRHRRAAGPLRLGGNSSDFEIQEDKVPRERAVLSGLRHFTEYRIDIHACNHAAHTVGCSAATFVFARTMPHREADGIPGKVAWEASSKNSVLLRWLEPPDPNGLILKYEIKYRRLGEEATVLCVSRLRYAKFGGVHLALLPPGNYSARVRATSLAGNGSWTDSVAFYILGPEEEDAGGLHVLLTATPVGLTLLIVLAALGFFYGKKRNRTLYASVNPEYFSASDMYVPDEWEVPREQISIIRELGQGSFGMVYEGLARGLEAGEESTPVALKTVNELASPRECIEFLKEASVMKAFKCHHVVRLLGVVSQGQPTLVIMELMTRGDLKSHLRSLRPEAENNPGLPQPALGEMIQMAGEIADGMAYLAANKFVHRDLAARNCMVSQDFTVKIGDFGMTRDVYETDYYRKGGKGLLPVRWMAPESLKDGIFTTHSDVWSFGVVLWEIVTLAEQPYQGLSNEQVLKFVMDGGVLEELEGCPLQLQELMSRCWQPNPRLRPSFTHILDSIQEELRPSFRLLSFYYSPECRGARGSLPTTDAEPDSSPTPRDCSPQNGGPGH
UniProt P06239: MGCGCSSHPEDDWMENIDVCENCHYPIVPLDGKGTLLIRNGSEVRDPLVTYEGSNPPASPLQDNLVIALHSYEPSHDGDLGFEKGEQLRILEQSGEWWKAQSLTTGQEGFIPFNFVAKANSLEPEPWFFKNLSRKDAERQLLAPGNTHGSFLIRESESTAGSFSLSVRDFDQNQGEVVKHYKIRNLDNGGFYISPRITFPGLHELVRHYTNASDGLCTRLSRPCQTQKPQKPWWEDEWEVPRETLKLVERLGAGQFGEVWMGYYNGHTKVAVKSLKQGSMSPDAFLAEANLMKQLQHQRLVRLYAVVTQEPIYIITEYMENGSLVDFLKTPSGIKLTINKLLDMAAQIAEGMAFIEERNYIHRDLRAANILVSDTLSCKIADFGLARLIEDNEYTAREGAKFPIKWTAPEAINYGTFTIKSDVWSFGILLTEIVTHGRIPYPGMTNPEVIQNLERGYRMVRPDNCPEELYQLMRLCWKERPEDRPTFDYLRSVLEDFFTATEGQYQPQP
UniProt P53667: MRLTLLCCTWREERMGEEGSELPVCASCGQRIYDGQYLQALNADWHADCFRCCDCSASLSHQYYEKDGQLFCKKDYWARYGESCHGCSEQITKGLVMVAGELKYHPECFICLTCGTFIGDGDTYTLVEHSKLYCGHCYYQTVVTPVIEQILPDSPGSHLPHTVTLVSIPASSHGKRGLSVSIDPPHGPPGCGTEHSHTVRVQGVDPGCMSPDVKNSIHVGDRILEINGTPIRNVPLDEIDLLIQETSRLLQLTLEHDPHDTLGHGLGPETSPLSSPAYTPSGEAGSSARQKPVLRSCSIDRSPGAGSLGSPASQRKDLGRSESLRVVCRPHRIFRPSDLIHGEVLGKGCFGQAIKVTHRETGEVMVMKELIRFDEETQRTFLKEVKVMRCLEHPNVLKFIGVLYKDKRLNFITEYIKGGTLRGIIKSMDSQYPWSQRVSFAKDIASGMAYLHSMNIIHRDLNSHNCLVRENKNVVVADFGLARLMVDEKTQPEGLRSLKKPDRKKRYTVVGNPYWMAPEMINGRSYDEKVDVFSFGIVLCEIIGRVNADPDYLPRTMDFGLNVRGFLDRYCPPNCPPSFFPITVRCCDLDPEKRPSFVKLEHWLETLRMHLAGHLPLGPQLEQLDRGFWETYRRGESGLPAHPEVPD
UniProt P53671: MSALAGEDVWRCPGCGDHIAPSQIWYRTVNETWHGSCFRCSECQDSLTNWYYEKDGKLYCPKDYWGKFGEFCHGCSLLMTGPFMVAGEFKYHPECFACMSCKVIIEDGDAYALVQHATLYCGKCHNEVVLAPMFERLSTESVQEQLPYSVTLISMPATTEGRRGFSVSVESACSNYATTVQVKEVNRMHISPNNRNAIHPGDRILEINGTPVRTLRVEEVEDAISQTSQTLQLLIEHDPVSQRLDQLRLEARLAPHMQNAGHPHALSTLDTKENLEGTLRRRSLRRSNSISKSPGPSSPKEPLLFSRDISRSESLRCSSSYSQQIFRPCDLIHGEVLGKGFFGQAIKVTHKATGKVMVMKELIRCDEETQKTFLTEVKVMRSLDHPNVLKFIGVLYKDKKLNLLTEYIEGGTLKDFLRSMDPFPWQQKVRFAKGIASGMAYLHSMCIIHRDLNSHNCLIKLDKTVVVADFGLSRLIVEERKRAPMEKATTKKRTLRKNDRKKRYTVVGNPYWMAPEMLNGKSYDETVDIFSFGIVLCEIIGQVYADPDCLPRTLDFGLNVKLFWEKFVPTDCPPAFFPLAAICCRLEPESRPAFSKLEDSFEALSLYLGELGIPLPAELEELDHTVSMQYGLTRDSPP

Row | Compound | number of time points (EGFR_L861Q) | number of time points (EGFR_T790M) | number of time points (EPHA2) | number of time points (ERBB3) | number of time points [1] | number of time points (ERN1) | number of time points (FGFR1) | number of time points (FGFR2) | number of time points (FGFR3) | number of time points (FGR) | number of time points (FLT3) | number of time points (FYN) | number of time points (GSK3A) | number of time points (HER2) | number of time points (INSRR) | number of time points (IRAK3) | number of time points (JAK1) | number of time points (LCK) | number of time points (LIMK1) | number of time points (LIMK2)
1 | Cc1cc2ncc(-c3ccccc3)nc2cc1C (10 µM) | 0 | 0 | 0 | 0 | 0 | 0 | 0 | 0 | 0 | 0 | 0 | 0 | 0 | 0 | 0 | 0 | 0 | 0 | 0 | 0
2 | O=C1NC(=O)/C(=C/c2ccc(-c3ccc(F)cc3O)o2)S1 (10 µM) | 0 | 0 | 0 | 0 | 0 | 0 | 0 | 0 | 0 | 0 | 0 | 0 | 0 | 0 | 0 | 0 | 0 | 0 | 0 | 0
3 | CN1CC[C@H](c2c(O)cc(O)c3c(=O)cc(-c4ccc(C(F)(F)F)cc4Cl)oc23)[C@H]1CO [(2S,3R)-Voruciclib (hydrochloride)] (2.5 µM) | 0 | 0 | 0 | 0 | 0 | 0 | 0 | 0 | 0 | 0 | 1 | 3 | 0 | 0 | 0 | 2 | 0 | 0 | 0 | 0
4 | Cc1ccc(-c2nn(C(C)(C)CNC(=O)c3ccncc3)c3ncnc(N)c23)cc1 (2.5 µM) | 0 | 0 | 0 | 0 | 0 | 0 | 0 | 0 | 0 | 0 | 0 | 0 | 0 | 0 | 0 | 0 | 0 | 0 | 0 | 0
5 | O=C(c1ccc(Nc2nccc(-c3cc4ccccc4s3)n2)cc1)N1CCC(N2CCCC2)CC1 (2.5 µM) | 0 | 0 | 0 | 0 | 0 | 0 | 0 | 0 | 0 | 0 | 0 | 0 | 0 | 0 | 0 | 0 | 0 | 0 | 0 | 0
6 | COc1ccc(CNc2nc(N(CCO)CCO)nc3c2ncn3C(C)C)cc1 (2.5 µM) | 0 | 0 | 0 | 0 | 0 | 0 | 0 | 2 | 0 | 0 | 0 | 0 | 0 | 0 | 0 | 0 | 0 | 0 | 0 | 0
7 | COc1c(O)cc2oc3cc(O)c(CC=C(C)C)c(O)c3c(=O)c2c1CCC(C)(C)O [Garcinone D] (2.5 µM) | 0 | 0 | 0 | 0 | 0 | 0 | 0 | 0 | 0 | 0 | 0 | 0 | 0 | 0 | 0 | 0 | 0 | 0 | 0 | 0
8 | CC[C@H](Nc1ncnc2[nH]cnc12)c1oc2ccccc2c(=O)c1-c1cccc(F)c1 [Tenalisib] (10 µM) | 0 | 0 | 0 | 0 | 0 | 0 | 0 | 0 | 0 | 0 | 0 | 0 | 0 | 0 | 0 | 0 | 0 | 0 | 0 | 0
9 | CC(C)(C)c1cc(C(c2cc3c(cc2O)OCO3)N2CCOCC2)cc(C(C)(C)C)c1O (stereo not given) (2.5 µM) | 0 | 0 | 0 | 0 | 0 | 0 | 0 | 0 | 0 | 0 | 0 | 0 | 0 | 0 | 0 | 0 | 0 | 0 | 0 | 0
10 | Cc1ccc(-c2ncn(-c3ccc(Nc4nccc(-c5cccc(N6CCOCC6)c5)n4)cc3)n2)cn1 (10 µM) | 0 | 0 | 0 | 0 | 0 | 0 | 0 | 0 | 0 | 0 | 0 | 0 | 0 | 0 | 0 | 0 | 0 | 0 | 0 | 0
11 | O=C1NC(=O)C(c2cnc3ccccn23)=C1c1cn2c3c(cc(F)cc13)CN(C(=O)N1CCCCC1)CC2 (2.5 µM) | 0 | 0 | 0 | 0 | 0 | 0 | 0 | 0 | 0 | 0 | 0 | 0 | 0 | 0 | 0 | 0 | 0 | 0 | 0 | 0
12 | CCOc1nc(Nc2ccc(C(=O)N3CCOCC3)cc2OC)nc2[nH]ccc12 [LRRK2 inhibitor 1] (2.5 µM) | 0 | 0 | 0 | 0 | 0 | 0 | 0 | 0 | 0 | 0 | 0 | 0 | 0 | 0 | 0 | 0 | 0 | 0 | 0 | 0

Copied from the list:
CC[C@H](Nc1ncnc2[nH]cnc12)c1oc2ccccc2c(=O)c1-c1cccc(F)c1 [Tenalisib] (10 µM) | number of time points [1]: 0
Cc1cc2ncc(-c3ccccc3)nc2cc1C (10 µM) | number of time points (IRAK3): 0

Source: the supplement of paper PMC12823440, “Inhibitors supercharge kinase turnover through native proteolytic circuits” (Nature, 2025)
